Measurements taken from patent US20080045535A1, “Prokineticin 2 receptor antagonists” (priority 2005, published 2008).

Amino acid sequences for entries named in this document (tags omitted).
UniProt Q8TCW9, whole entry: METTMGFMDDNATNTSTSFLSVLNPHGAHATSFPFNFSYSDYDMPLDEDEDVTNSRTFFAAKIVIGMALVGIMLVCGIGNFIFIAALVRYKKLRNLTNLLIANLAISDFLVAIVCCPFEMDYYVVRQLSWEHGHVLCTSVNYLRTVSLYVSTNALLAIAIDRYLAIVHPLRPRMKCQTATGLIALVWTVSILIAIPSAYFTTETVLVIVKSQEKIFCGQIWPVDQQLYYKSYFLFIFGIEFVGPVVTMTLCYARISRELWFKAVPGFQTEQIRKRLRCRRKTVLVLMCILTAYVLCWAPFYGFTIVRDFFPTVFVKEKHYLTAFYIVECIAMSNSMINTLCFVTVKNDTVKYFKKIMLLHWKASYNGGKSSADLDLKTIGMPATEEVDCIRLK

Target: HEK 293 GPR73 (prokineticin 1 receptor) expressing cells (Homo sapiens, UniProt Q8TCW9)
Experiment: PK1 functional assay: screening for PK1 antagonists on the FLIPR (calcium fluorescence)
Details: read-out: Ca^2+ Mobilization IC50, HEK 293 GPR73 cells, PK1 ligand at EC50, multiple values = repeat tests

- IC50: > 10 µM
SMILES: CCCCOc1ccc(Cn2c(NCCNC(=N)N)nc(=O)n(Cc3ccccc3)c2=O)cc1 [Cpd 148]

Structures were worked out from names or drawings and are uncertain.
